PubChem BioAssay AID1347423 (Functional Genomics Laboratory (NCATS/FGL), 2020)
Screen size: about 52,000 sequences; about 210 (0.4%) were called active.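 How the source made its calls: active means gene whose silencing raises cell survival under the drug, median off-target-corrected z-score across its silencing RNAs 2 or more; inactive means the rest.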 The list shows a part of the results.

assay: Resistance to Poly (ADP-Ribose) Polymerase inhibitor: Gene Identification via Genome-wide siRNA Screen; settings: mouse BRCA2 R2336H ES cells, olaparib, CellTiter-Glo viability; hits give high values
Summary of the method: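 Mouse BRCA2 R2336H ES cells were reverse-transfected with siRNA (20 nM final), treated at 48 h with 500 nM olaparib, and read by CellTiter-Glo after 72 h. Scores: MAD-based z per siRNA, median per gene, seed off-target correction.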

Row | Sequence | z-score
1 | GGAUGUUCAACUAAAAGUATT against 1700034M03Rik | inactive: -0.865
2 | CGCAUUCCGAUCUACGAGATT against Cart | inactive: 0.219
3 | GCUUGGACUGGCUGAAGAATT against Ndufa3 | inactive: -1.31
4 | GCUAUUGAAGUCUCUUCCGTT against Slc14a1 | inactive: 0.0516
5 | GCUCCCUAACAGUUGUCUATT against 1110061O04Rik | inactive: 0.287
6 | GGUGUCAACAUUGCAUACUTT against C430014D17Rik | inactive: 1.33
7 | GGCUUGAGUACGAAUGGGATT against Gdd1 | inactive: 0.183
8 | GGAGCCUUACUGGAGAUUUTT against Ptplb | inactive: 0.579
9 | GGGCCAUUGUCAAGGUGAUTT against Olfr632 | inactive: 0.618
10 | GGGCUAAGUGUUGAAUUUATT against Csnk1e | inactive: 2.14
11 | GGAUCUCGAGUCUCAUCUCTT against 2410075B13Rik | inactive: -1.4
12 | GGGAAUUUCAGGCUAUAUUTT against 4732460C16Rik | inactive: -2.04
13 | CCCAACAAAAUGCGCGAUUTT against Rasa2 | inactive: 0.782
14 | GGUAUAGAACUGAAGAAGUTT against ORF28 | inactive: 0.0528
15 | GGGCUUAGCUCACCUUCAUTT against Nrk | inactive: -2.38
16 | GGACGAGAAAGCAAAGCAGTT against Mllt10 | inactive: 0.302
17 | GGUUUUAAAGGAGACCCAGTT against C1qa | inactive: 0.762
18 | GGCCUUCACUGGUUAAAAUTT against Ankrd6 | inactive: 1.47
19 | GGGCUCCACAUGUUUGCAUTT against Ehmt1 | inactive: 1.2
20 | GGAGAAGAAGUUCUUGCUGTT against Cnnm2 | inactive: -1.14
21 | GGUACAUCGCCAUUUGCCATT against Trhr2 | inactive: -0.664
22 | CGAUUUGCCUUAUUUUUCATT against Litaf | inactive: 1.24
23 | GGUGUGUGUAUGGUAGGACTT against 5330431N19Rik | inactive: 0.629
24 | GGAUGCUCUGCUAAUGAUUTT against Cadps2 | inactive: -0.939
25 | GGUCUUUUCUACAUGUGGATT against Olfr389 | inactive: 0.292
26 | CCUUGGGAAUUACCCAGAGTT against Ctag3 | inactive: -0.56

Row | Sequence | z-score
27 | GCUUCAAACUAGUUCCAAATT against H1foo | inactive: -1.33
28 | GAUCCGUAUUACCUAUUGUTT against Rex3 | inactive: -1.18
29 | GGUACAUACUUAUGAAAAGTT against Havcr1 | inactive: -0.286
30 | CCUUGUAUAUGAGCGAAAATT against 1190003K14Rik | inactive: -0.491
31 | CGGAGAGACUUUGCCUCUATT against Samd11 | inactive: 0.507
32 | GCGAUUGGCAGAUUGCUACTT against Tm4sf10 | inactive: -0.219
33 | GGACUUACAAUCCACCAGATT against Ptgds2 | inactive: 0.792
34 | GGAAGAGAGAGAAUUACUATT against 3300001P08Rik | inactive: -2.68
35 | GGAUCAAUCGUUUUGCUUGTT against Epb4.1l2 | inactive: -0.508
36 | GCCAUAUCAACUAGUGCAGTT against 6430529G09Rik | inactive: -0.403
37 | GGCUUGUGUCCACUUAGCATT against Olfr1404 | inactive: -0.375
38 | GGAGAAGUUCAGAUCUUUGTT against AI118078 | inactive: -0.0775
39 | CCUCUAGAGAUCAAUGAGATT against 2610111M03Rik | inactive: -0.188
40 | AUGUCUCAGGUGCCUAAGGTT against MGC91195 | inactive: -0.247
41 | GGAAGAUGAACAAACGACATT against 1810029G24Rik | inactive: 0.664
42 | GGUUUUCAAAGUCCUGAAUTT against Myo3a | inactive: 0.331
43 | CCGCCUACAUGGUUCUCUUTT against Vat1 | inactive: 0.238
44 | GGGCUUCUUUAGAAGAACCTT against Thrb | inactive: 0.308
45 | GGACUUUGUUUCUUGAUGGTT against Dkk1 | inactive: 1.1
46 | CCCUGGCCAAACAUAGUGGTT against BC060267 | inactive: -1.05
47 | GACGACAUUCAUGAAGCGCTT against Rasl2-9 | inactive: -1.11
48 | GGCUCUUCGUCGGAAGAAUTT against Ccdc9 | inactive: -0.288
49 | GGUACAUGUAUUGUUUCACTT against Cyp2c38 | inactive: 1.74
50 | GGCGUGGUUUCUGUCUGUUTT against Ihpk1 | inactive: -2.15
51 | GGAUAUCAUGAAAACACUCTT against Katna1 | inactive: 1.91
52 | GGGCAAGGAUGUGUUGAAATT against Dhx37 | inactive: 0.6

In another format: results already given
Row	Sequence	z-score
39	CCUCUAGAGAUCAAUGAGATT against 2610111M03Rik	inactive: -0.188
40	AUGUCUCAGGUGCCUAAGGTT against MGC91195	inactive: -0.247
41	GGAAGAUGAACAAACGACATT against 1810029G24Rik	inactive: 0.664
42	GGUUUUCAAAGUCCUGAAUTT against Myo3a	inactive: 0.331
43	CCGCCUACAUGGUUCUCUUTT against Vat1	inactive: 0.238
44	GGGCUUCUUUAGAAGAACCTT against Thrb	inactive: 0.308

(cont.)

Row | Sequence | z-score
53 | GGCUUGACUUCUCCAAACATT against A730011L11 | inactive: 3.27
54 | CCACAAUUGGGUAAGAUUATT against Glipr2 | inactive: -1.43
55 | GGGCUUGUUAGCAUCAUCCTT against Olfr382 | inactive: 1.8
56 | CCAUAUAGCCUCAAAAUCGTT against Acat2 | inactive: -0.833
57 | GGAGAUCUACAAGGAAUUCTT against Men1 | inactive: 0.707
58 | GGCAAUAACAUUGCCUCGGTT against Igf1r | inactive: 1.81
59 | GCAGAAAAUCGCUACCCAGTT against D16Ertd480e | inactive: 0.759
60 | GGAUAACAGCAAGCUGGCGTT against Taldo1 | inactive: 0.13
61 | GGACCAAUCCUACAAUAUATT against Cyp19a1 | inactive: 1.53
62 | GGAAGAGGAAGAAAUUAUATT against Zbtb33 | inactive: -0.0676
63 | GGAAUUCAACAGACAAAUATT against Paip2 | inactive: -0.149
64 | GGCUAACAAACUCAUACCCTT against Guca2a | inactive: -0.789
65 | GACGAAAACCAACAGCACGTT against Rbp2 | inactive: 0.391
66 | GGAGAUGAUUAAGUCUGGATT against Pkm2 | inactive: -0.653
67 | GGUAAAGCCAAAGAACAAATT against Enpp2 | inactive: -0.34
68 | GGUAGCUGAAGAAGACUUCTT against Reg2 | inactive: -1.39
69 | GGCCCACAGGAACAUCCUATT against Zbtb8 | inactive: 0.875
70 | GGACAGCUUUGAUUUCAUUTT against C030019F02Rik | inactive: 0.0969
71 | GGACUGAAUGCAAGUGAAGTT against 4732467B22 | inactive: 0.419
72 | GGGUCGUAAUGAGUUCUGGTT against Pparbp | inactive: 1.15
73 | GGACAACCUGUUGACCUAGTT against Ube1dc1 | inactive: 0.475
74 | GGUGGUUAGAUCUUACGCUTT against BC019731 | inactive: 0.746
75 | GGCCAGUCACUCAACCUUATT against Phc1 | inactive: -2.77
76 | CCCUUUGCCGAAUACAUUUTT against Dpys | inactive: -0.531
77 | GGCCAGAAAAUUAAGGAGCTT against 2310003H01Rik | inactive: -0.329
78 | GGUCUUCUUUAGUUCAGAATT against 2810427I04Rik | inactive: -2.04

Row | Sequence | z-score
79 | GCAAUCAAGGUUAAAAUUGTT against Slfn2 | inactive: 0.305
80 | CCAAACCUGUCUCUUAUCATT against Slco1c1 | inactive: 0.0923
81 | CGAAUAUCUGCAUUUAUUGTT against Mbip | inactive: -0.521
82 | GAUGUUUCAGAACAUUCUUTT against Cadps | inactive: -0.517
83 | GGUAUAAUUUAGGUGACUATT against Epc1 | inactive: -0.16
84 | CCUCAAUGAAGACCCAUUATT against Kif1b | inactive: -1.28
85 | GCCAAUUUGACUUGUAAGUTT against Slc22a3 | inactive: 0.764
86 | GGACAGCCCUUCUUUGUCUTT against Il17rb | inactive: -0.467
87 | GCCGGUAAAAUUAAGGUGATT against Cyp2j9 | inactive: 0.623
88 | GGGAGUAGAGAAGAAGGUGTT against Dpf3 | inactive: 0.0405
89 | GCGACUACUACACAGACGATT against Ext2 | inactive: 0.425
90 | GCUGUGGAGAAGUGCUACUTT against Sprrl5 | inactive: 2.65
91 | CCUCUUAUAUGCAUGUGGCTT against Olfr410 | inactive: 0.22
92 | GGAGAAUAAUAAGCUGGAATT against Hap1 | inactive: 1.14
93 | GUCUGCUCAUCGACAGCUATT against 2310066E14Rik | inactive: 0.456
94 | CCAUAUCUCUAUCUACUGGTT against Rs1h | inactive: 0.417
95 | GGUGGUUUUCCUCCUCUGUTT against Kdelr3 | inactive: -0.75
96 | CCAUCUUACUGAAUACAAATT against Iqgap1 | inactive: 0.145
97 | GGAAAUACCGGAACCAGAATT against Ptdsr | inactive: -0.424
98 | GCCUCUUAGUAGAGACAGUTT against Nat6 | inactive: -0.727
99 | CCAUUUAUGGGUUUUCUCUTT against Taar7b | inactive: 1.07
100 | GCAACUAUUACUUAGCCAUTT against Fgf10 | inactive: 0.331
101 | GGAGGAACCCUCAUUUUAGTT against 1110018J18Rik | inactive: 0.903
102 | GGGAAAAUUUCAAUGAGAGTT against Slc16a10 | inactive: -0.742
103 | GACCAGAUCCAGAAAUCGGTT against 4933434G05Rik | inactive: 0.529
104 | CGAGCAAAUCUCAUUCAAGTT against Oxgr1 | inactive: 0.347
